# In the supplement of paper PMC4604168 (melanoma cell lines):
# The list shows a part of the results. Many values rest on one well or one pass, so single values are uncertain.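 Imaging used 1,536-well plates; nuclei positive for cleaved PARP by antibody were divided by total DNA-stained nuclei to yield the apoptosis fraction. Doses for screening kept most cells viable, and cell lines differ markedly in resting and induced cleaved-PARP levels.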
# Legend:
# Assay in all cases: cleaved PARP positive nuclei fraction relative to DMSO control; melanoma cells; higher = more apoptosis
# Settings in all cases: library dose: low library concentration; 72 h
# MZ2-MEL = test system: MZ2-MEL
# MeWo = test system: MeWo
# RPMI7951 = test system: RPMI7951
# RVH-421 = test system: RVH-421
# SkMel28 = test system: SkMel28
# SkMel2 = test system: SkMel2
# SkMel30 = test system: SkMel30
# SkMel5 = test system: SkMel5
# UACC257 = test system: UACC257
# UACC62 = test system: UACC62
Structure (SMILES),cleaved PARP positive nuclei fraction (MZ2-MEL),cleaved PARP positive nuclei fraction (MeWo),cleaved PARP positive nuclei fraction (RPMI7951),cleaved PARP positive nuclei fraction (RVH-421),cleaved PARP positive nuclei fraction (SkMel28),cleaved PARP positive nuclei fraction (SkMel2),cleaved PARP positive nuclei fraction (SkMel30),cleaved PARP positive nuclei fraction (SkMel5),cleaved PARP positive nuclei fraction (UACC257),cleaved PARP positive nuclei fraction (UACC62)
"Cc1cc(N2CCOCC2)cc2[nH]c(-c3c(NC[C@@H](O)c4cccc(Cl)c4)cc[nH]c3=O)nc12 + Cn1cncc1[C@@](N)(c1ccc(Cl)cc1)c1ccc2c(c1)c(-c1cccc(Cl)c1)cc(=O)n2C [tipifarnib] (first compound 0.2 µM, partner dose 0.01 µM)",131%,49.6%,152%,192%,123%,190%,71.3%,137%,106%,226%
"C=CCn1c(=O)c2cnc(Nc3ccc(N4CCN(C)CC4)cc3)nc2n1-c1cccc(C(C)(C)O)n1 + NC(=O)Nc1cc(-c2cccc(F)c2)sc1C(=O)N[C@H]1CCCNC1 [AZD7762] (first compound 0.02 µM, partner dose 0.02 µM)",78.3%,176%,180%,89.8%,69.3%,137%,211%,46.6%,103%,204%
"CC(=O)c1c(C)c2cnc(Nc3ccc(N4CCNCC4)cn3)nc2n(C2CCCC2)c1=O [palbociclib] + COc1ccc2c(c1)CCC1C2CCC2(C)C(NCCCCCCN3C(=O)C=CC3=O)CCC12 [U73122] (first compound 0.04 µM, partner dose 0.4 µM)",52.9%,29.9%,49.2%,167%,112%,54.4%,31.3%,40.9%,120%,104%
"C[C@]1(c2nc3c(C(N)=O)cccc3[nH]2)CCCN1 [Veliparib] + C=CCn1c(=O)c2cnc(Nc3ccc(N4CCN(C)CC4)cc3)nc2n1-c1cccc(C(C)(C)O)n1 [MK1775] (first compound 1.4 µM, partner dose 0.02 µM)",68.2%,179%,64.8%,124%,145%,156%,69.6%,164%,169%,97.2%
"Cn1nnc2c(C(N)=O)ncn2c1=O [temozolomide] + CN(NC(=O)CC(=O)NN(C)C(=S)c1ccccc1)C(=S)c1ccccc1 [STA4783] (first compound 2 µM, partner dose 0.006 µM)",79.1%,144%,56%,81.8%,157%,34.9%,74.4%,151%,137%,245%
"Cn1c(Nc2ccc(C(F)(F)F)cc2)nc2cc(Oc3ccnc(-c4ncc(C(F)(F)F)[nH]4)c3)ccc21 + Cc1ccc(NC(=O)c2cccc(N(C)C)c2)cc1NC(=O)c1ccc(O)cc1 [ZM336372] (first compound 0.08 µM, partner dose 2 µM)",158%,50%,237%,89.7%,99.2%,147%,152%,242%,1790%,296%
"C[C@@H]1CCN(C(=O)CC#N)C[C@@H]1N(C)c1ncnc2[nH]ccc12 + O=C(Nc1cccc(Cl)c1)Nc1ncc(CCNc2ncnc3ccsc23)s1 [SNS314] (first compound 1 µM, partner dose 0.0008 µM)",126%,99.7%,131%,61.6%,16.3%,171%,56.2%,139%,36.6%,78.8%
"Nc1cccc2c1CN(C1CCC(=O)NC1=O)C2=O (stereo not given) [lenalidomide] + CN(NC(=O)CC(=O)NN(C)C(=S)c1ccccc1)C(=S)c1ccccc1 [STA4783] (first compound 1 µM, partner dose 0.006 µM)",117%,55%,170%,102%,71.5%,14.2%,112%,140%,109%,122%
"O=C(CCCCCCC(=O)Nc1ccccc1)NO [vorinostat] + Cn1cncc1[C@@](N)(c1ccc(Cl)cc1)c1ccc2c(c1)c(-c1cccc(Cl)c1)cc(=O)n2C [tipifarnib] (first compound 0.08 µM, partner dose 0.01 µM)",95.9%,428%,108%,151%,69.5%,237%,244%,156%,127%,292%
"Cn1c(Nc2ccc(C(F)(F)F)cc2)nc2cc(Oc3ccnc(-c4ncc(C(F)(F)F)[nH]4)c3)ccc21 + O=C(CCCCCCC(=O)Nc1ccccc1)NO [vorinostat] (first compound 0.08 µM, partner dose 0.08 µM)",136%,61.8%,88.9%,212%,154%,96%,132%,47.3%,760%,214%
"CC(=O)c1c(C)c2cnc(Nc3ccc(N4CCNCC4)cn3)nc2n(C2CCCC2)c1=O [palbociclib] + CN(NC(=O)CC(=O)NN(C)C(=S)c1ccccc1)C(=S)c1ccccc1 [STA4783] (first compound 0.04 µM, partner dose 0.006 µM)",92.6%,290%,51.5%,215%,176%,42.9%,93.3%,163%,62.4%,80.7%
"Cn1c(Nc2ccc(C(F)(F)F)cc2)nc2cc(Oc3ccnc(-c4ncc(C(F)(F)F)[nH]4)c3)ccc21 + CC1(C)NC(=O)N(c2ccc([N+](=O)[O-])c(C(F)(F)F)c2)C1=O [nilutamide] (first compound 0.08 µM, partner dose 1 µM)",430%,82.4%,79.8%,103%,186%,132%,121%,141%,320%,229%
"OCCn1cc(-c2cnc3nnn(Cc4ccc5ncccc5c4)c3n2)cn1 + O=C(Nc1cccc(Cl)c1)Nc1ncc(CCNc2ncnc3ccsc23)s1 [SNS314] (first compound 1 µM, partner dose 0.0008 µM)",106%,85.9%,133%,222%,87.6%,128%,62.2%,128%,71.9%,100%
"Clc1ccc(Nc2nnc(Cc3ccncc3)c3ccccc23)cc1 [vatalanib] + CC(C)CCN1c2nc(Nc3cc(F)c(O)c(F)c3)ncc2N(C)C(=O)C1C [BID1870] (first compound 2 µM, partner dose 0.2 µM)",351%,33.1%,42.7%,152%,195%,104%,20%,22%,83.2%,92.3%
"OCc1c[nH]c2ccccc12 [Indole-3-carbinol] + N#Cc1c(O)c2c(-c3ccc(-c4ccccc4O)cc3)csc2[nH]c1=O [A769662] (first compound 0.8 µM, partner dose 2 µM)",21.3%,221%,28.9%,134%,63.7%,67.7%,123%,207%,119%,60.6%
"O=C(CCCCCCC(=O)Nc1ccccc1)NO [vorinostat] + NC(=O)Nc1cc(-c2cccc(F)c2)sc1C(=O)N[C@H]1CCCNC1 [AZD7762] (first compound 0.08 µM, partner dose 0.02 µM)",149%,209%,133%,97.8%,69%,100%,67.3%,63.3%,53.2%,370%
"Cc1cc(N2CCOCC2)cc2[nH]c(-c3c(NC[C@@H](O)c4cccc(Cl)c4)cc[nH]c3=O)nc12 + COc1cc2c(Oc3ccc4[nH]c(C)cc4c3F)ncnc2cc1OCCCN1CCCC1 [cediranib] (first compound 0.2 µM, partner dose 0.4 µM)",213%,107%,118%,152%,232%,129%,73.2%,104%,110%,172%
"Cc1ccc(NC(=O)c2cccc(N(C)C)c2)cc1NC(=O)c1ccc(O)cc1 + C[C@@H]1CCN(C(=O)CC#N)C[C@@H]1N(C)c1ncnc2[nH]ccc12 [CP690550] (first compound 2 µM, partner dose 1 µM)",80.1%,98.4%,93.2%,45.1%,107%,70.1%,63.5%,122%,61.5%,164%
"CC(C)(C)c1cnc(CSc2cnc(NC(=O)C3CCNCC3)s2)o1 + CN(C)S(=O)(=O)c1ccc2c(c1)/C(=C/c1cc3c([nH]1)CCCC3)C(=O)N2 [SU6656] (first compound 0.01 µM, partner dose 0.4 µM)",280%,35.9%,83.8%,146%,160%,76.2%,56.9%,99.3%,122%,291%
"CC(=O)c1c(C)c2cnc(Nc3ccc(N4CCNCC4)cn3)nc2n(C2CCCC2)c1=O [palbociclib] + CC(C)CCN1c2nc(Nc3cc(F)c(O)c(F)c3)ncc2N(C)C(=O)C1C [BID1870] (first compound 0.04 µM, partner dose 0.2 µM)",123%,109%,83.8%,71.5%,199%,92.5%,42.9%,142%,160%,223%
"COCC[n+]1c2c(n(Cc3cnccn3)c1C)C(=O)c1ccccc1C2=O + C=CCn1c(=O)c2cnc(Nc3ccc(N4CCN(C)CC4)cc3)nc2n1-c1cccc(C(C)(C)O)n1 [MK1775] (first compound 0.0004 µM, partner dose 0.02 µM)",566%,143%,166%,82%,60.9%,107%,154%,346%,185%,106%
"NC(=O)Nc1cc(-c2cccc(F)c2)sc1C(=O)N[C@H]1CCCNC1 + C[C@@H]1CCN(C(=O)CC#N)C[C@@H]1N(C)c1ncnc2[nH]ccc12 [CP690550] (first compound 0.02 µM, partner dose 1 µM)",84.7%,91.2%,132%,138%,75.3%,108%,48.7%,32.9%,208%,268%

# 2 records picked at random from those above:
Structure (SMILES),cleaved PARP positive nuclei fraction (MZ2-MEL),cleaved PARP positive nuclei fraction (MeWo),cleaved PARP positive nuclei fraction (RPMI7951),cleaved PARP positive nuclei fraction (RVH-421),cleaved PARP positive nuclei fraction (SkMel28),cleaved PARP positive nuclei fraction (SkMel2),cleaved PARP positive nuclei fraction (SkMel30),cleaved PARP positive nuclei fraction (SkMel5),cleaved PARP positive nuclei fraction (UACC257),cleaved PARP positive nuclei fraction (UACC62)
"NC(=O)Nc1cc(-c2cccc(F)c2)sc1C(=O)N[C@H]1CCCNC1 + C[C@@H]1CCN(C(=O)CC#N)C[C@@H]1N(C)c1ncnc2[nH]ccc12 [CP690550] (first compound 0.02 µM, partner dose 1 µM)",84.7%,91.2%,132%,138%,75.3%,108%,48.7%,32.9%,208%,268%
"Cc1ccc(NC(=O)c2cccc(N(C)C)c2)cc1NC(=O)c1ccc(O)cc1 + C[C@@H]1CCN(C(=O)CC#N)C[C@@H]1N(C)c1ncnc2[nH]ccc12 [CP690550] (first compound 2 µM, partner dose 1 µM)",80.1%,98.4%,93.2%,45.1%,107%,70.1%,63.5%,122%,61.5%,164%
